PubChem BioAssay AID1159578 – Peter MacCallum Cancer Centre, 2015
The deposit covers about 18,000 reagents; shown is a part drawn at random. In the full data, about 1,030 (5.7%) were called active. 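Inactive calls also include pools with fewer than 3300 nuclei, whose migration was not assessed.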 Raw values are not corrected between plates. A number with no mark means an inactive call. No sequences are given here.

Purpose: 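Knock-downs that alter how fast lymphatic endothelial cells migrate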 (primary screen)
System: human lymphatic endothelial cells
Reagent: siRNA pool against human genes, 40 nM
Time to read-out: 48 h after transfection
Measured: 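Cells stained with dye and imaged after a scratch; covered wound area and nuclei counted, duplicates averaged, migration set against mock wells and turned into a robust z-score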
Reading the numbers: migration robust z-score: higher = faster migration into the scratch; migration relative to mock: higher = more scratch area covered than mock; nuclei per well: higher = more cells in the well
Hit rule: 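Migration changed when robust z exceeds 2 or falls below -2 and mean nuclei number is at least 3300; otherwise not called changed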
Meaning of the calls: active = migration changed; inactive = no migration change, or too few cells

Gene | PubChem SID | migration robust z-score | migration class with cell-count check | migration relative to mock | nuclei per well, duplicate mean
GOSR2 | SID255354381 | 2.44 (active) | migration z above 2; enough cells | 1.27 | 4458
PARP6 | SID255359203 | -0.8 | migration z between -2 and 2; enough cells | 0.68 | 4102
ZNF839 | SID255358854 | 0.68 | migration z between -2 and 2; enough cells | 1.06 | 5988
C19orf48P | SID255361507 | 0.86 | migration z between -2 and 2; enough cells | 1.11 | 5976
PLA2G4D | SID255364705 | -0.16 | migration z between -2 and 2; enough cells | 0.78 | 5014
FSCN2 | SID255356464 | -0.52 | migration z between -2 and 2; enough cells | 0.75 | 4096
RPP30 | SID255355176 | 0.78 | migration z between -2 and 2; enough cells | 1.09 | 5182
GPR174 | SID255361433 | -1.12 | migration z between -2 and 2; enough cells | 0.59 | 6854
CSF3R | SID255349119 | -1.03 | migration z between -2 and 2; enough cells | 0.6 | 3641
SLC5A1 | SID255352454 | 0.52 | migration z between -2 and 2; enough cells | 0.9 | 5336
GNPAT | SID255353554 | -0.06 | migration z between -2 and 2; enough cells | 0.87 | 6028
OR1M1 | SID255362670 | 1.89 | migration z between -2 and 2; enough cells | 1.38 | 5937
CDC26 | SID255364398 | 1.04 | migration z between -2 and 2; enough cells | 1.16 | 6095
PRKAG1 | SID255351790 | 0.13 | migration z between -2 and 2; enough cells | 0.83 | 4120
SENP5 | SID255364146 | -0.02 | migration z between -2 and 2; enough cells | 0.8 | 5360
CYCS | SID255357981 | -0.6 | migration z between -2 and 2; enough cells | 0.69 | 4846
SGSM1 | SID255362826 | -0.06 | migration z between -2 and 2; enough cells | 0.86 | 6840
MICU3 | SID255364898 | -0.66 | migration z between -2 and 2; enough cells | 0.72 | 5416
INIP | SID255359638 | 0.94 | migration z between -2 and 2; enough cells | 1.13 | 5616
CEP55 | SID255358462 | 2.19 (active) | migration z above 2; enough cells | 1.46 | 5872
PPM1K | SID255363550 | 0.36 | migration z between -2 and 2; enough cells | 0.88 | 6607
CD300LD-AS1 | SID255363294 | -0.71 | migration z between -2 and 2; enough cells | 0.7 | 5677
NR2C1 | SID255352956 | -0.02 | migration z between -2 and 2; enough cells | 0.8 | 4440
ADAT1 | SID255356311 | -0.26 | migration z between -2 and 2; enough cells | 0.76 | 4258
PAGE1 | SID255353757 | 0.26 | migration z between -2 and 2; enough cells | 0.96 | 6462
ZNF800 | SID255363876 | -0.52 | migration z between -2 and 2; enough cells | 0.74 | 6292
TMEM217 | SID255364300 | 0.83 | migration z between -2 and 2; enough cells | 1.1 | 4901
GPRC5A | SID255353995 | 1.02 | migration z between -2 and 2; enough cells | 1 | 6154
ACKR1 | SID255349774 | -0.99 | migration z between -2 and 2; enough cells | 0.62 | 6200
MRRF | SID255362010 | 0.12 | migration z between -2 and 2; enough cells | 0.92 | 5490
HMGXB4 | SID255354759 | -0.18 | migration z between -2 and 2; enough cells | 0.84 | 6960
CELF2 | SID255355266 | -0.52 | migration z between -2 and 2; enough cells | 0.75 | 5028
LPCAT4 | SID255364462 | 1.63 | migration z between -2 and 2; enough cells | 1.29 | 5878
MGST2 | SID255350961 | -0.39 | migration z between -2 and 2; enough cells | 0.78 | 4951
SOX3 | SID255352573 | -0.13 | migration z between -2 and 2; enough cells | 0.78 | 5996
EDF1 | SID255353763 | 0.36 | migration z between -2 and 2; enough cells | 0.88 | 5584
MAP3K13 | SID255354092 | -1.09 | migration z between -2 and 2; enough cells | 0.6 | 4131
MAPK4 | SID255351813 | -5.86 | under 3300 nuclei; migration not judged | -0.32 | 1436
ZNF354B | SID255362434 | 0.78 | migration z between -2 and 2; enough cells | 1.09 | 4359
ZNF257 | SID255362208 | 0.57 | migration z between -2 and 2; enough cells | 1.04 | 6375
TNNT2 | SID255352923 | 1.18 | migration z between -2 and 2; enough cells | 1.19 | 5644
PLEK | SID255351627 | -0.1 | migration z between -2 and 2; enough cells | 0.86 | 5361
ATG7 | SID255355157 | -0.13 | migration z between -2 and 2; enough cells | 0.78 | 4793
CRCP | SID255357016 | 1.64 | migration z between -2 and 2; enough cells | 1.31 | 6182
ZNF805 | SID255365671 | -0.04 | migration z between -2 and 2; enough cells | 0.88 | 6026
ADAM32 | SID255364116 | 0.08 | migration z between -2 and 2; enough cells | 0.82 | 5712
CLIC4 | SID255356562 | -2.69 (active) | migration z below -2; enough cells | 0.28 | 3382
ERP44 | SID255355967 | -0.52 | migration z between -2 and 2; enough cells | 0.7 | 5255
CXCR1 | SID255350464 | -0.76 | migration z between -2 and 2; enough cells | 0.66 | 5436
CXCL12 | SID255352348 | -0.88 | migration z between -2 and 2; enough cells | 0.66 | 4464
PCDHGB7 | SID255358991 | 0.58 | migration z between -2 and 2; enough cells | 1.04 | 6011
RWDD4 | SID255364095 | -1.99 | migration z between -2 and 2; enough cells | 0.36 | 3950
TAS2R9 | SID255357370 | -1.4 | migration z between -2 and 2; enough cells | 0.52 | 6274
OXCT2 | SID255359806 | -0.67 | migration z between -2 and 2; enough cells | 0.68 | 4586
FAAH | SID255349607 | 0.2 | migration z between -2 and 2; enough cells | 0.84 | 5250
MRPL53 | SID255362386 | -2.18 (active) | migration z below -2; enough cells | 0.32 | 4987
A4GALT | SID255357957 | 0.18 | migration z between -2 and 2; enough cells | 0.84 | 5046
ABCC8 | SID255352701 | -1.55 | migration z between -2 and 2; enough cells | 0.5 | 4056
H2AC7 | SID255350130 | -0.54 | migration z between -2 and 2; enough cells | 0.74 | 6608
CHORDC1 | SID255356860 | -0.44 | migration z between -2 and 2; enough cells | 0.77 | 7216
KCNA4 | SID255350588 | -0.08 | migration z between -2 and 2; enough cells | 0.79 | 5165
PRSS2 | SID255351851 | 0 | migration z between -2 and 2; enough cells | 0.88 | 5186
ALDH3B2 | SID255348265 | 0.03 | migration z between -2 and 2; enough cells | 0.81 | 5306
ZNF668 | SID255360446 | -0.22 | migration z between -2 and 2; enough cells | 0.83 | 6200
PARP16 | SID255358301 | -0.57 | migration z between -2 and 2; enough cells | 0.74 | 5836
AGAP7P | SID255366136 | -0.58 | migration z between -2 and 2; enough cells | 0.74 | 5616
SLCO1B3 | SID255357064 | 0.47 | migration z between -2 and 2; enough cells | 0.9 | 6210
TRIM56 | SID255360958 | 0.7 | migration z between -2 and 2; enough cells | 0.94 | 5593
ENTPD1 | SID255348783 | -1.04 | migration z between -2 and 2; enough cells | 0.6 | 4560
HEBP1 | SID255357387 | 2.4 (active) | migration z above 2; enough cells | 1.51 | 6445
PLA1A | SID255357678 | -1.66 | migration z between -2 and 2; enough cells | 0.48 | 5032
SCARA3 | SID255357716 | -0.57 | migration z between -2 and 2; enough cells | 0.7 | 4463
DIPK1A | SID255365512 | -1.52 | migration z between -2 and 2; enough cells | 0.48 | 3975

9 of these entries, set out differently:
CHORDC1 [SID255356860] — migration robust z-score = -0.44; migration class with cell-count check = migration z between -2 and 2; enough cells; migration relative to mock = 0.77; nuclei per well, duplicate mean = 7216
KCNA4 [SID255350588] — migration robust z-score = -0.08; migration class with cell-count check = migration z between -2 and 2; enough cells; migration relative to mock = 0.79; nuclei per well, duplicate mean = 5165
PRSS2 [SID255351851] — migration robust z-score = 0; migration class with cell-count check = migration z between -2 and 2; enough cells; migration relative to mock = 0.88; nuclei per well, duplicate mean = 5186
ALDH3B2 [SID255348265] — migration robust z-score = 0.03; migration class with cell-count check = migration z between -2 and 2; enough cells; migration relative to mock = 0.81; nuclei per well, duplicate mean = 5306
ZNF668 [SID255360446] — migration robust z-score = -0.22; migration class with cell-count check = migration z between -2 and 2; enough cells; migration relative to mock = 0.83; nuclei per well, duplicate mean = 6200
PARP16 [SID255358301] — migration robust z-score = -0.57; migration class with cell-count check = migration z between -2 and 2; enough cells; migration relative to mock = 0.74; nuclei per well, duplicate mean = 5836
AGAP7P [SID255366136] — migration robust z-score = -0.58; migration class with cell-count check = migration z between -2 and 2; enough cells; migration relative to mock = 0.74; nuclei per well, duplicate mean = 5616
SLCO1B3 [SID255357064] — migration robust z-score = 0.47; migration class with cell-count check = migration z between -2 and 2; enough cells; migration relative to mock = 0.9; nuclei per well, duplicate mean = 6210
TRIM56 [SID255360958] — migration robust z-score = 0.7; migration class with cell-count check = migration z between -2 and 2; enough cells; migration relative to mock = 0.94; nuclei per well, duplicate mean = 5593
